Reference: patent publication US12715851B2, “4′-substituted analogues of fisetin and their use in the treatment of cancer” (Stellenbosch University, priority 2020, dated 2026)
Some entries share one result that the patent states for a list of compounds.

System: B(a)P-induced lung carcinogenesis
Experiment: B(a)P-induced lung carcinogenesis, Initiation and Promotion Protocols
Assay type: in vivo, Swiss albino mice
Conditions: tumor promotion group
Excerpt: To assess whether Fisetin and its 4-bromo-Fisetin analogue (Fisetin analogue 3c) have anticarcinogenesis activity and if any toxicity in terms of water and food consumption, and body weight, Benzo[a]pyrene [B(a)P] induced lung carcinogenesis in Swiss albino mice were employed in the study. Along with the antitumor activity of the agents, the body weight, food and water intake in different treatment groups were monitored on regular intervals and analysed.
There were six different treatment groups in the study including, (1) control, (2) B(a)P, (3) Fisetin+B(a)P, (4) Fisetin analogue 3c+B(a)P, (5) B(a)P+Fisetin and (6) B(a)P+Fisetin analogue 3c.
Groups 3 and 4 represent the Initiation Protocol (agents treatment started 1 week before carcinogen treatment and continued 1 week after the last dose of the carcinogen). Groups 5 and 6 represent the Promotion Protocol (agents treatment started after 3 weeks of the carcinogen treatment). The B(a)P was given orally twice a week for 4 weeks at 50 mg/kg body weight dose, whereas Fisetin and Fisetin analogue (3c) were administered orally at 25 mg/kg body weight thrice weekly (see FIG. 9).

Structure (SMILES)	reduction in the total number of lesions
O=c1c(O)c(-c2ccc(O)c(O)c2)oc2cc(O)ccc12 [Fisetin]	more than 50%
O=c1c(O)c(-c2ccc(Br)cc2)oc2cc(O)ccc12 [analogue 3c, 4′-Bromo-3,7-dihydroxyflavone]	more than 50%
